Consider one substance from paper PMC10113393.

Sequences of proteins named here, by UniProt entry; tags and fusion partners are left off.
UniProt P33176: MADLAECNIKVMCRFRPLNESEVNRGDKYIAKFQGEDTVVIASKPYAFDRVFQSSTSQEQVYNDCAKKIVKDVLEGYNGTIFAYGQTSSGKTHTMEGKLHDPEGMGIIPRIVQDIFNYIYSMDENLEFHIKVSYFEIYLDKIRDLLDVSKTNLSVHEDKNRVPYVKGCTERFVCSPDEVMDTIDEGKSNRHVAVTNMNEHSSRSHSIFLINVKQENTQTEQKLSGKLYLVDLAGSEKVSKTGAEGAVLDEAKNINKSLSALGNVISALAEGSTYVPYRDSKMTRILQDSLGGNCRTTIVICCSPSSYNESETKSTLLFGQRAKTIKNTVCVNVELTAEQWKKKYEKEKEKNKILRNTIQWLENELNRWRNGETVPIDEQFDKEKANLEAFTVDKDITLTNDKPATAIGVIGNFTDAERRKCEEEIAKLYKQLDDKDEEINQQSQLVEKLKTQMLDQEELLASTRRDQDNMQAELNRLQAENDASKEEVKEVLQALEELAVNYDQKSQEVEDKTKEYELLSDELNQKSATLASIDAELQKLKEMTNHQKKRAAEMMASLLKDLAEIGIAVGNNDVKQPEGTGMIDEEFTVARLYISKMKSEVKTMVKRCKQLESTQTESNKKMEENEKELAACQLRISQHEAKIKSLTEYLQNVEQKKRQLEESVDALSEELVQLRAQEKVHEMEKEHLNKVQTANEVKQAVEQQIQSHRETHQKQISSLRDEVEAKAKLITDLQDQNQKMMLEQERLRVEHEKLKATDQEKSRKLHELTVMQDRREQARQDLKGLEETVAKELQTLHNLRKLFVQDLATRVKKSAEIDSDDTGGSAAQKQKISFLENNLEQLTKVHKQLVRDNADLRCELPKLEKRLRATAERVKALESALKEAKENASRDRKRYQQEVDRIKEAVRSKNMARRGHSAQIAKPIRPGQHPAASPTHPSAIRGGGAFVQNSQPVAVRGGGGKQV
UniProt O00429: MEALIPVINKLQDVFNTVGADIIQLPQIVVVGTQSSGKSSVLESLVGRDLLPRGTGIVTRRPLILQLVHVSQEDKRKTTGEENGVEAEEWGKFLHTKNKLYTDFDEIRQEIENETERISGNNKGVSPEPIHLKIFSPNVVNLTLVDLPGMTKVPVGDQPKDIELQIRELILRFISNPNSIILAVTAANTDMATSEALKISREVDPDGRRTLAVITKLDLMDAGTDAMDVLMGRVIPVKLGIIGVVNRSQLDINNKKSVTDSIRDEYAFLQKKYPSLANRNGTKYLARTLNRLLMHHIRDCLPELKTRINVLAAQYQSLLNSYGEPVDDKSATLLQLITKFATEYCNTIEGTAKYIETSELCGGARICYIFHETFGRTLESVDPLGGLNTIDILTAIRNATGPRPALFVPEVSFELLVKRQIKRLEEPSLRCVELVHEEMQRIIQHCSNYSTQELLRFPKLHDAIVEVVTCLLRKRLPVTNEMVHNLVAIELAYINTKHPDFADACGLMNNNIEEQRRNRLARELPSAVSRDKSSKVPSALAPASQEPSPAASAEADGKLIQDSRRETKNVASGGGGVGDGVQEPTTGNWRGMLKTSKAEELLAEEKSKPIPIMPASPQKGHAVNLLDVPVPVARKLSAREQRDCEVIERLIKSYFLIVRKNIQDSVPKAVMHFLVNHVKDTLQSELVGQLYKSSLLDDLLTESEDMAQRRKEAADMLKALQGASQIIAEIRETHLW

These are yes or no findings as the source states them, for the method shown. In cells and extracts the contact can be indirect. Some entries that bind do so weakly or less than the wild type.

This assay addresses Kinesin family member 5B (human (endogenous in A549 and SK-N-BE(2)C)) (UniProt P33176). In words: co-IP; endogenous proteins in A549 and SK-N-BE(2)C lysates; anti-KIF5B or anti-DRP1 antibody; Pierce IP lysis buffer, 4 °C overnight, Dynabeads Protein A; western blotting.

On to “GTPase dynamin-related protein 1 (from UniProt O00429 1-736)”, for which the binding entry is given as “binds”.
